PubChem BioAssay AID1259308 | NCATS – 2017
The whole screen tested about 59,000 reagents; below is a part drawn at random. In the full data, about 1,510 (2.6%) got an active call. 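Calls use total luciferase alone and ignore viability, so some active siRNAs may act by altering cell number.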 Entries without a mark were called inactive. Reagents against one gene are numbered here. Further read-outs or replicates are left out here.

Aim: 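Knock-downs that increase output of a recombinant reporter protein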 (primary screen)
Cell system: human HEK293 embryonic kidney cells stably expressing firefly luciferase (HEK-CMV-Luc2-Hygro)
Reagents: single siRNA against human genes, 0.8 pmol siRNA per well
Duration: 72 h
Measured: 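Luciferase light (ONE-Glo) measured on one replicate plate set and viability (CellTiter-Glo) on the other, scaled to a negative control siRNA, with robust z-scores and luciferase per cell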
Direction: total luciferase, z-score: higher = more reporter protein produced
Rule for the call: 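An siRNA counts as active if its total luciferase robust z-score exceeds 3; genes with two or more such siRNAs out of three were retested with fresh siRNAs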
Meaning of the calls: active = raised luciferase; inactive = no rise

total luciferase, z-score, by gene symbol and reagent
CITED2: #1 -0.495; #2 -0.141; #3 0.308
LOC645967: #1 1.21; #2 -0.152; #3 0.215
HLF: #1 -0.173; #2 -0.0481; #3 0.968
GREM2: #1 0.247; #2 2.07; #3 -2.72
TCP11: #1 2.69; #2 -1.65; #3 1.37

Entries listed so far whose target name begins with T or t (3):
total luciferase, z-score, by gene symbol and reagent
TCP11: #1 2.69; #2 -1.65; #3 1.37

Continued:
total luciferase, z-score, by gene symbol and reagent
AFF4: #1 -0.126; #2 -1.34; #3 0.245
TLCD4: #1 -0.433; #2 1.05; #3 -1.23
LOC401478: #1 0.163; #2 -0.251; #3 2.71
CD80: #1 0.718; #2 -0.933; #3 0.00111
CAP1: #1 -0.831; #2 -1.92; #3 -0.318
BECN1: #1 -0.667; #2 0.026; #3 -0.381
LDB3: #1 -0.247; #2 -1.07; #3 0.0811
PRELID3A: #1 1.05; #2 -0.796; #3 1.42
